Assay results: patent US20030009023A1
No constants are given. Whether binding was seen depends on the method and setting. Binding calls can cover weak binding; strength is not graded here.

Molecular target: HA-tagged mouse Wnt-3B (mouse)
Experiment: anti-HA immunoprecipitation of co-transfected COS7 lysates, immunoblot with N374-PEP

B1: bovine Frzb (protein)
chain: AACEPVRIPLCKSLPWNMTKMPNHLHHSTQANAILAIEQFEGLLGTHCSPDLLFFLCAMYAPICTIDFQHEPIKPCKSVCERARQGCEPILIKYRHSWPESLACEELPVYDRGVCISPEAIVTADGADFPMDSSNGNCRGASSERCKCKPVRATQKTYFRNNYNYVIRAKVKEIKTKCHDVTAVVEVKEILKASLVNIPRETVNLYTSSGCLCPPLNVNEEYLIMGYEDEERSRLLLVEGSIAEKWKDRLGKKVKRWDMKLRHLGLNTSDSSHSDSTQSQKPGRNSNSRQARN
Question: B1 was tested. Which binding did it give?
Answer: The binding was “binds”.
